{
  "source": "patent US8946244B2",
  "about": "“2′-fluoro-6′methylene carbocyclic nucleosides and methods of treating viral infections” (University of Georgia Research Foundation, Inc., priority 2009, dated 2015)",
  "origin": "cited, not measured here",
  "tested_on": "HBV rtL180M+rtM204V/I mutations",
  "settings": "in vitro study; cited from earlier work",
  "note": "At least one compound was matched to its structure with a doubt left.",
  "data": [
    {"smiles": "Nc1ccn([C@@H]2CS[C@H](CO)O2)c(=O)n1", "note": "[Compound 3TC, lamivudine]", "values": [
      {"measurement": "fold decreased susceptibility of the virus", "value": "> 1000", "unit": "fold"}
    ]}
  ]
}
